The series has as its target Natural human growth hormone (hGH, somatotropin) (Homo sapiens) (UniProt P01241). Put plainly: ELONA. As to conditions: weaker than r-hGH; purified native protein; label: 5'-biotin; single-stranded DNA.

Protein sequences, listed by entry. Tags and fused reporters are not part of them. Residues count along the entry.
UniProt P01241, 27-217: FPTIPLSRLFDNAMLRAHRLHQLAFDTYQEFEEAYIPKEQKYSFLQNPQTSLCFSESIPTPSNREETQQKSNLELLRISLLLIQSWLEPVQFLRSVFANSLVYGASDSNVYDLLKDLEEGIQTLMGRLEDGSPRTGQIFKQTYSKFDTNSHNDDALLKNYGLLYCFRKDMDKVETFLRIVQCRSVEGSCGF

A weaker result is weaker than the reference pair of the same experiment.

“ATACGGGAGCCAACACCACATGACGGGTGACTAAAAGACGAAATCTCCCAATTAAGAGCAGGTGTGACGGAT [hGH aptamer SEQ 377]”: the binding result is “binds more weakly”.
Turning to “ATACGGGAGCCAACACCACCTGAGCGCCGGCAGCACTCACTATTTGTCCCCGCAAGAGCAGGTGTGACGGAT [hGH aptamer SEQ 379]”, the binding result is reported as “binds more weakly”.
The same measure for “ATACGGGAGCCAACACCAGGTTGGCGTCAAAAGAAATAAGGGATATACATTAGAGAGCAGGTGTGACGGAT [hGH aptamer SEQ 345]”: “binds more weakly”; for “ATACGGGAGCCAACACCATAAGCAGAGAACTACAAGACGATCCCATATTCCAAAGAGCAGGTGTGACGGAT [hGH aptamer SEQ 343]”: “binds more weakly”.
Turning to “ATCCGTCACACCTGCTCTAAAACATGGGCCCAATTAGGCGTGATCCAACCCGTCTGGTGTTGGCTCCCGTAT [hGH aptamer SEQ 388]”, the binding result is “binds more weakly”.
“ATCCGTCACACCTGCTCTAGGATTTTTGTTATGTCGGCCACGATGGGGACCCCGTGGTGTTGGCTCCCGTAT [hGH aptamer SEQ 348]”: the binding result was “binds more weakly”.
With “ATCCGTCACACCTGCTCTGGGGTGTATCCTTTTATGGATCTGCGAGAATAAGTCTGGTGTTGGCTCCCGTAT [hGH aptamer SEQ 336]” the entry was “binds more weakly”.
Consider “ATCCGTCACACCTGCTCTTGGGTGAATCAATTGTTCGTACTCCACGTGATTCTGTGGTGTTGGCTCCCGTAT [hGH aptamer SEQ 338]”, for which the binding result is on record as “binds more weakly”.

These data come from patent US20140296500.
